B1: A73I, L72A: FABP probe clone, substitutions A73I, L72A vs SEQ ID NO: 2 (protein, listed as Rattus norvegicus)
chain: AFDGTWKVDRNENYEKFMEKMGINVVKRKLGAHDNLKLTITQEGNKFTVKESSNFRNIDVVFELGVDFAYSAIDGTELTGTWTMEGNKLVGKFKRVDNGKELIAVREISGNELIQTYTYEGVEAKRIFKKE
modifications: PEPTIDE (1)...(131) wild-type rat intestinal fatty acid binding protein
B2: D74F, L72A: FABP probe clone, substitutions D74F, L72A vs SEQ ID NO: 2 (protein, listed as Rattus norvegicus)
chain: AFDGTWKVDRNENYEKFMEKMGINVVKRKLGAHDNLKLTITQEGNKFTVKESSNFRNIDVVFELGVDFAYSAAFGTELTGTWTMEGNKLVGKFKRVDNGKELIAVREISGNELIQTYTYEGVEAKRIFKKE
modifications: PEPTIDE (1)...(131) wild-type rat intestinal fatty acid binding protein
B3: L78F, L72A: FABP probe clone, substitutions L78F, L72A vs SEQ ID NO: 2 (protein, listed as Rattus norvegicus)
chain: AFDGTWKVDRNENYEKFMEKMGINVVKRKLGAHDNLKLTITQEGNKFTVKESSNFRNIDVVFELGVDFAYSAADGTEFTGTWTMEGNKLVGKFKRVDNGKELIAVREISGNELIQTYTYEGVEAKRIFKKE
modifications: PEPTIDE (1)...(131) wild-type rat intestinal fatty acid binding protein
B4: W82F, L72A: FABP probe clone, substitutions W82F, L72A vs SEQ ID NO: 2 (protein, listed as Rattus norvegicus)
chain: AFDGTWKVDRNENYEKFMEKMGINVVKRKLGAHDNLKLTITQEGNKFTVKESSNFRNIDVVFELGVDFAYSAADGTELTGTFTMEGNKLVGKFKRVDNGKELIAVREISGNELIQTYTYEGVEAKRIFKKE
modifications: PEPTIDE (1)...(131) wild-type rat intestinal fatty acid binding protein
B5: R106W, L72A: FABP probe clone, substitutions R106W, L72A vs SEQ ID NO: 2 (protein, listed as Rattus norvegicus)
chain: AFDGTWKVDRNENYEKFMEKMGINVVKRKLGAHDNLKLTITQEGNKFTVKESSNFRNIDVVFELGVDFAYSAADGTELTGTWTMEGNKLVGKFKRVDNGKELIAVWEISGNELIQTYTYEGVEAKRIFKKE
modifications: PEPTIDE (1)...(131) wild-type rat intestinal fatty acid binding protein
B6: Y117A, L72A: FABP probe clone, substitutions Y117A, L72A vs SEQ ID NO: 2 (protein, listed as Rattus norvegicus)
chain: AFDGTWKVDRNENYEKFMEKMGINVVKRKLGAHDNLKLTITQEGNKFTVKESSNFRNIDVVFELGVDFAYSAADGTELTGTWTMEGNKLVGKFKRVDNGKELIAVREISGNELIQTATYEGVEAKRIFKKE
modifications: PEPTIDE (1)...(131) wild-type rat intestinal fatty acid binding protein
B7: Y117S, L72A: FABP probe clone, substitutions Y117S, L72A vs SEQ ID NO: 2 (protein, listed as Rattus norvegicus)
chain: AFDGTWKVDRNENYEKFMEKMGINVVKRKLGAHDNLKLTITQEGNKFTVKESSNFRNIDVVFELGVDFAYSAADGTELTGTWTMEGNKLVGKFKRVDNGKELIAVREISGNELIQTSTYEGVEAKRIFKKE
modifications: PEPTIDE (1)...(131) wild-type rat intestinal fatty acid binding protein
B8: L72A: FABP probe clone, substitution L72A vs SEQ ID NO: 2 (protein of ADIFAB2) (protein, listed as Rattus norvegicus)
chain: AFDGTWKVDRNENYEKFMEKMGINVVKRKLGAHDNLKLTITQEGNKFTVKESSNFRNIDVVFELGVDFAYSAADGTELTGTWTMEGNKLVGKFKRVDNGKELIAVREISGNELIQTYTYEGVEAKRIFKKE
modifications: PEPTIDE (1)...(131) wild-type rat intestinal fatty acid binding protein
B9: L72G: FABP probe clone, substitution L72G vs SEQ ID NO: 2 (protein, listed as Rattus norvegicus)
chain: AFDGTWKVDRNENYEKFMEKMGINVVKRKLGAHDNLKLTITQEGNKFTVKESSNFRNIDVVFELGVDFAYSGADGTELTGTWTMEGNKLVGKFKRVDNGKELIAVREISGNELIQTYTYEGVEAKRIFKKE
modifications: PEPTIDE (1)...(131) wild-type rat intestinal fatty acid binding protein
B10: L72M: FABP probe clone, substitution L72M vs SEQ ID NO: 2 (protein, listed as Rattus norvegicus)
chain: AFDGTWKVDRNENYEKFMEKMGINVVKRKLGAHDNLKLTITQEGNKFTVKESSNFRNIDVVFELGVDFAYSMADGTELTGTWTMEGNKLVGKFKRVDNGKELIAVREISGNELIQTYTYEGVEAKRIFKKE
modifications: PEPTIDE (1)...(131) wild-type rat intestinal fatty acid binding protein
B11: A73F, L72A: FABP probe clone, substitutions A73F, L72A vs SEQ ID NO: 2 (protein, listed as Rattus norvegicus)
chain: AFDGTWKVDRNENYEKFMEKMGINVVKRKLGAHDNLKLTITQEGNKFTVKESSNFRNIDVVFELGVDFAYSAFDGTELTGTWTMEGNKLVGKFKRVDNGKELIAVREISGNELIQTYTYEGVEAKRIFKKE
modifications: PEPTIDE (1)...(131) wild-type rat intestinal fatty acid binding protein
B12: L1P12E11: FABP probe, substitutions Y14L L72W vs SEQ ID NO: 2 (protein, listed as Rattus norvegicus)
chain: AFDGTWKVDRNENLEKFMEKMGINVVKRKLGAHDNLKLTITQEGNKFTVKESSNFRNIDVVFELGVDFAYSWADGTELTGTWTMEGNKLVGKFKRVDNGKELIAVREISGNELIQTYTYEGVEAKRIFKKE
modifications: PEPTIDE (1)...(131) wild-type rat intestinal fatty acid binding protein
B13: L1P12F12: FABP probe, substitutions Y14L L72G Y117V vs SEQ ID NO: 2 (protein, listed as Rattus norvegicus)
chain: AFDGTWKVDRNENLEKFMEKMGINVVKRKLGAHDNLKLTITQEGNKFTVKESSNFRNIDVVFELGVDFAYSGADGTELTGTWTMEGNKLVGKFKRVDNGKELIAVREISGNELIQTVTYEGVEAKRIFKKE
modifications: PEPTIDE (1)...(131) wild-type rat intestinal fatty acid binding protein
B14: L1P2F7: FABP probe, substitutions Y14I L72G Y117V vs SEQ ID NO: 2 (protein, listed as Rattus norvegicus)
chain: AFDGTWKVDRNENIEKFMEKMGINVVKRKLGAHDNLKLTITQEGNKFTVKESSNFRNIDVVFELGVDFAYSGADGTELTGTWTMEGNKLVGKFKRVDNGKELIAVREISGNELIQTVTYEGVEAKRIFKKE
modifications: PEPTIDE (1)...(131) wild-type rat intestinal fatty acid binding protein
B15: 21W 78F 72A (protein, listed as Rattus norvegicus)
chain: AFDGTWKVDRNENYEKFMEKWGINVVKRKLGAHDNLKLTITQEGNKFTVKESSNFRNIDVVFELGVDFAYSAADGTEFTGTWTMEGNKLVGKFKRVDNGKELIAVREISGNELIQTYTYEGVEAKRIFKKE
modifications: PEPTIDE (1)...(131) wild-type rat intestinal fatty acid binding protein
B16: 38Y 18L 73V 72A (protein, listed as Rattus norvegicus)
chain: AFDGTWKVDRNENYEKFLEKMGINVVKRKLGAHDNLKYTITQEGNKFTVKESSNFRNIDVVFELGVDFAYSAVDGTELTGTWTMEGNKLVGKFKRVDNGKELIAVREISGNELIQTYTYEGVEAKRIFKKE
modifications: PEPTIDE (1)...(131) wild-type rat intestinal fatty acid binding protein
B17: 18L 55L 73I 72A (protein, listed as Rattus norvegicus)
chain: AFDGTWKVDRNENYEKFLEKMGINVVKRKLGAHDNLKLTITQEGNKFTVKESSNLRNIDVVFELGVDFAYSAIDGTELTGTWTMEGNKLVGKFKRVDNGKELIAVREISGNELIQTYTYEGVEAKRIFKKE
modifications: PEPTIDE (1)...(131) wild-type rat intestinal fatty acid binding protein
B18: 18L 73L 72A (protein, listed as Rattus norvegicus)
chain: AFDGTWKVDRNENYEKFLEKMGINVVKRKLGAHDNLKLTITQEGNKFTVKESSNFRNIDVVFELGVDFAYSALDGTELTGTWTMEGNKLVGKFKRVDNGKELIAVREISGNELIQTYTYEGVEAKRIFKKE
modifications: PEPTIDE (1)...(131) wild-type rat intestinal fatty acid binding protein
B19: 73I 72A (protein, listed as Rattus norvegicus)
chain: AFDGTWKVDRNENYEKFMEKMGINVVKRKLGAHDNLKLTITQEGNKFTVKESSNFRNIDVVFELGVDFAYSAIDGTELTGTWTMEGNKLVGKFKRVDNGKELIAVREISGNELIQTYTYEGVEAKRIFKKE
modifications: PEPTIDE (1)...(131) wild-type rat intestinal fatty acid binding protein
B20: 21W 78A 102V 72A (protein, listed as Rattus norvegicus)
chain: AFDGTWKVDRNENYEKFMEKWGINVVKRKLGAHDNLKLTITQEGNKFTVKESSNFRNIDVVFELGVDFAYSAADGTEATGTWTMEGNKLVGKFKRVDNGKEVIAVREISGNELIQTYTYEGVEAKRIFKKE
modifications: PEPTIDE (1)...(131) wild-type rat intestinal fatty acid binding protein

assay: Baseline fluorescence ratio Ro of probe in absence of analyte; details: Table 3; baseline ratio, no analyte

**Q.** With B1 as the molecule, how does the Ro read?
**A.** 0.27

**Q.** For B2, which Ro is on record?
**A.** 0.25

**Q.** For B3, which Ro is on record?
**A.** 0.35

**Q.** With B4 as the molecule, how does the Ro read?
**A.** 0.27

**Q.** For B5, which Ro is on record?
**A.** 0.24

**Q.** With B6 as the molecule, how does the Ro read?
**A.** 0.28

**Q.** For B7, which Ro is on record?
**A.** 0.36

**Q.** With B8 as the molecule, how does the Ro read?
**A.** 0.17

**Q.** Which Ro does the source give for B9 here?
**A.** 0.28

**Q.** For B10, which Ro is on record?
**A.** 0.38

**Q.** With B11 as the molecule, how does the Ro read?
**A.** 0.33

same assay, conditions: Table 4; baseline ratio, no analyte

**Q.** With B12 as the molecule, how does the Ro read?
**A.** 0.59

**Q.** With B13 as the molecule, how does the Ro read?
**A.** 0.28

**Q.** With B14 as the molecule, how does the Ro read?
**A.** 0.32

same assay, conditions: baseline fluorescence ratio of probe

**Q.** With B15 as the molecule, how does the Ro read?
**A.** 0.604

**Q.** With B16 as the molecule, how does the Ro read?
**A.** 0.386

**Q.** With B17 as the molecule, how does the Ro read?
**A.** 0.474

**Q.** With B18 as the molecule, how does the Ro read?
**A.** 0.283

**Q.** With B19 as the molecule, how does the Ro read?
**A.** 0.276

**Q.** Which Ro does the source give for B20 here?
**A.** 0.388

From patent US20060257938A1, “Method of screening for drugs that block ligand binding to a lipid binding protein” (priority 2005, published 2006)
